{"sequences": {"note": "Protein sequences, listed by entry. Tags and fused reporters are not part of them.", "UniProt Q5AAJ8, whole entry, looked up": "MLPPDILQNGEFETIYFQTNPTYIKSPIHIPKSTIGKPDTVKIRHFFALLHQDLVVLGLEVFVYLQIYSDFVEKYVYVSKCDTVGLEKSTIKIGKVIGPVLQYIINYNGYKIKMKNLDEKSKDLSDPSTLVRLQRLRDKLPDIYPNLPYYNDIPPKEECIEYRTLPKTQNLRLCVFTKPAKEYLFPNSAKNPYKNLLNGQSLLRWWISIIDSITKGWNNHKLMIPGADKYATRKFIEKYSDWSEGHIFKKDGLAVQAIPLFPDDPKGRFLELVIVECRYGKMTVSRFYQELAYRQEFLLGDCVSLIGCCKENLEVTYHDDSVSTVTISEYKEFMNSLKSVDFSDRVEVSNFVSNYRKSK"}, "source": "PubChem BioAssay AID540336", "about": "(Broad Institute, 2011)", "note": "Screen size: about 330,000 compounds; about 520 (0.16%) were called active. This list was built around the results that the source calls inconclusive (neither active nor inactive); the mix of calls is not that of the screen.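 How the source made its calls: active means inhibition of at least 50% in every replicate; inconclusive means best replicate reaches 50% inhibition but some replicates fall short; inactive means the rest.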"}
{"target": "Histone acetyltransferase RTT109 (Candida albicans (strain SC5314 / ATCC MYA-2876)) (UniProt Q5AAJ8)", "assay": "Rtt109-Vps75 histone acetyltransferase blockade – biochemical, ThioGlo CoA-SH fluorescence, plate reader, primary screen (AID 540336)", "details": "purified Rtt109/Vps75, ThioGlo CoA-SH fluorescence, 4 h; at 34.9 µM; stronger effect = higher value"}
{"smiles": "Cc1cc(NCc2ccccn2)n2nc(C)c(-c3ccc(Cl)cc3)c2n1", "inhibition": "inactive: 2.18%"}
{"smiles": "N#Cc1ccc(S(=O)(=O)N2CCc3[nH]c4ccc(F)cc4c3C2)cc1", "inhibition": "active: 53.6%"}
{"smiles": "CCCC1(c2ccccc2)NC(=O)N(CC(=O)N(C)Cc2c(F)cccc2Cl)C1=O", "note": "(stereo not given)", "inhibition": "inconclusive: 56%"}
{"smiles": "COc1cccc(C2N=C(c3ccccc3C)NO2)c1OC", "note": "(stereo not given)", "inhibition": "inconclusive: 47.4%"}
{"smiles": "CC[C@@H](C)[C@@H]1CN([C@@H](C)CN2CCC[C@H]2CN2C(N)=NC[C@@H]2Cc2ccccc2)C(=N)N1CCc1ccc(Cl)c(Cl)c1", "inhibition": "inconclusive: 45.3%"}
{"smiles": "CC(=O)Nc1cccc(NC(=O)c2cccc(S(=O)(=O)N3CCN(Cc4ccccc4)CC3)c2)c1", "inhibition": "inconclusive: 51.4%"}
{"smiles": "COc1cccc(C(=O)NNC(=O)CCc2ccccc2)c1", "inhibition": "inconclusive: 28.5%"}
{"smiles": "CC(C)Cc1nc2ccc(N)cc2[nH]1", "inhibition": "inactive: 19.5%"}
{"smiles": "COc1cc(OC)cc(C(=O)N[C@H](C(=O)OCC(=O)NC(C)c2ccccc2)C(C)C)c1", "note": "(stereo not given in full)", "inhibition": "inconclusive: 29.3%"}
{"smiles": "CCOC(=O)C1CCN(C(=O)Nc2ccc(Cl)cc2Cl)CC1", "inhibition": "inactive: 15.3%"}
{"smiles": "CC(=O)Nc1ccc(S(=O)(=O)NCc2nc(-c3ccc(C)cc3)no2)cc1", "inhibition": "inactive: -0.803%"}
{"smiles": "COCCN1Cc2cc3cc(C)ccc3nc2SC1=Nc1cccc(OC)c1", "inhibition": "inactive: 10%"}
{"smiles": "CCCCCCCOC(=O)C[N+](C)(C)CCOC1CC2CCC1(C)C2(C)C", "note": "(stereo not given)", "inhibition": "inconclusive: 53.2%"}
{"smiles": "Clc1nc(NCc2cccnc2)nc(N2CCOCC2)n1", "inhibition": "inconclusive: 46.6%"}
{"smiles": "CCOC(=O)N1CCN(C(=O)C2CCN(C(=O)c3ccccc3C)CC2)CC1", "inhibition": "inconclusive: 55.3%"}
{"smiles": "Cc1cccc(N2CN=c3s/c(=C\\c4ccncc4)c(=O)n3C2)c1", "inhibition": "inconclusive: 19.4%"}
{"smiles": "C1CCN(c2nc3nonc3nc2NCC2CCOCC2)CC1", "inhibition": "inconclusive: 31.1%"}
{"smiles": "CN(Cc1ccccn1)C(=O)CC1C(=O)NCCN1Cc1cccc(Oc2ccccc2)c1", "note": "(stereo not given)", "inhibition": "inconclusive: 24.6%"}
{"smiles": "O=[N+]([O-])c1ccc(N2CCN(Cc3ccccc3)CC2)s1", "inhibition": "inconclusive: 20.5%"}
{"smiles": "COc1ccc(OC)c(NC(=O)Cn2cc(C(=O)c3ccco3)c3ccccc32)c1", "inhibition": "inconclusive: 37.1%"}
{"smiles": "CCOC(=O)c1c(-c2cccc(C)c2)csc1NC(=O)C1CC=CCC1C(=O)O", "note": "(stereo not given)", "inhibition": "inconclusive: 58.2%"}
{"smiles": "CCOC(=O)c1ccc(Oc2nc(OC)nc(N(C)C)n2)cc1", "inhibition": "inactive: 17.9%"}
{"smiles": "CCCCN1C(=N)N([C@@H](CCC)CN2CCC[C@H]2CN2C(N)=NC[C@@H]2Cc2ccccc2)C[C@H]1Cc1ccccc1", "inhibition": "inconclusive: 25.7%"}
{"smiles": "COC(=O)[C@H](Cc1ccccc1)NC(=O)NCC1CCCO1", "note": "(stereo not given in full)", "inhibition": "inactive: -3.1%"}
{"smiles": "COc1cccc2c1C(=O)c1c(O)c3c(c(O)c1C2=O)C[C@@](O)(C(C)=O)C[C@@H]3O[C@H]1C[C@H](N)[C@H](O)[C@H](C)O1", "inhibition": "inconclusive: 56.5%"}
{"smiles": "CC(C)(C)S(=O)(=O)c1cnc(-c2ccc(Cl)cc2)nc1N", "inhibition": "inactive: -15%"}
{"smiles": "CCN1C(=O)[C@H]2[C@H]3CN=C(SCC4CC4)N3[C@@](Cc3ccccc3)(C(=O)OC)[C@H]2C1=O", "inhibition": "inconclusive: 20.5%"}
{"smiles": "CCOc1ccccc1N1CCN(C(=O)c2ccc3[nH]c(C)c(C)c3c2)CC1", "inhibition": "inconclusive: 43%"}
{"smiles": "CCCCCCC(=O)N(O)C1CC(=O)N(c2ccc(F)cc2)C1=O", "note": "(stereo not given)", "inhibition": "inactive: -3.01%"}
{"smiles": "COc1ccc(NC(=O)N2CCN(c3ccc([N+](=O)[O-])cc3)CC2)cc1OC", "inhibition": "inconclusive: 42.5%"}
{"smiles": "CCCCOc1ccc(Br)cc1CSC(=N)N", "inhibition": "inactive: -3.28%"}
{"smiles": "Cc1ccc(CN(C(=O)c2ccccc2C)C2CCS(=O)(=O)C2)o1", "note": "(stereo not given)", "inhibition": "active: 72.5%"}
{"smiles": "O=C(NN1C(=O)/C(=C/C=C/c2ccco2)SC1=S)c1ccccc1O", "inhibition": "active: 70%"}
{"smiles": "O=C(CSc1nc(O)c(Cc2ccccc2)c(=O)[nH]1)Nc1ccccc1", "inhibition": "inconclusive: 51.4%"}
{"smiles": "O=C(N/N=C/c1cn(-c2cccs2)nc1-c1ccccc1)c1ccccc1Br", "inhibition": "inactive: -0.897%"}
{"smiles": "CCSS(=O)(=O)c1cccc2cccnc12", "inhibition": "active: 154%"}
{"smiles": "CN(C)CCCN(C(=O)c1ccc(S(=O)(=O)N(C)C2CCCCC2)cc1)c1nc2ccc(F)cc2s1", "inhibition": "inconclusive: 30.9%"}
{"smiles": "O=S(Cc1ccc(Br)cc1)Cc1nnc(SCc2ccc(Br)cc2)n1-c1ccccc1", "note": "(stereo not given)", "inhibition": "inactive: -5.68%"}
{"smiles": "O=C(CSc1ccc([N+](=O)[O-])cn1)Nc1ccc(N2CCOCC2)c(Cl)c1", "inhibition": "inconclusive: 26.3%"}
{"smiles": "Cn1nc(-c2ccc(NCCO)c([N+](=O)[O-])c2)c2ccccc2c1=O", "inhibition": "inconclusive: 25.2%"}
{"smiles": "COc1ccc(NC(=O)c2nc3ccccc3s2)cc1", "inhibition": "active: 53.6%"}
{"smiles": "CCCNC(=O)c1cccc(Cn2nc(C)c(Br)c2C)c1", "inhibition": "inactive: -5.01%"}
{"smiles": "CC(=O)Nc1ccc(OCC(=O)NCc2ccccc2)cc1", "inhibition": "active: 52.4%"}
{"smiles": "O=C(O/N=C1\\CCS(=O)(=O)c2sccc21)c1ccccc1", "inhibition": "inactive: -0.749%"}
{"smiles": "N#C/C(=N\\Nc1ccccc1)C(N)=S", "inhibition": "inconclusive: 31.5%"}
{"smiles": "CCOC(=O)Cc1csc(NC(=O)CSc2nc(C)cc(=O)[nH]2)n1", "inhibition": "active: 66.2%"}
{"smiles": "Cc1ccc(S(=O)(=O)NCC(=O)OCC(=O)N2CC(C)OC(C)C2)cc1", "note": "(stereo not given)", "inhibition": "inactive: 12%"}
{"smiles": "CC(C)n1cnc2c(NCc3ccccc3)cc(OCC3CCN(C)CC3)cc21", "inhibition": "inconclusive: 60.7%"}
{"smiles": "COc1cc(/C=N/N=C(N)N)ccc1OCc1ccc(Cl)cc1", "inhibition": "inconclusive: 72.7%"}
{"smiles": "CC1CCC(C(C)C)C(OC(=O)COC(=O)c2ccc(N)cc2)C1", "note": "(stereo not given)", "inhibition": "inactive: -6.07%"}
{"smiles": "O=C(Nc1ccc(NC(=O)C2CC2)nc1)c1cccs1", "inhibition": "inactive: -9.18%"}
{"smiles": "COc1ccc(/C=C2/SC(=O)N(NS(=O)(=O)c3ccccc3)C2=S)cc1OC", "inhibition": "active: 78.9%"}
{"smiles": "O=C(CSc1nc2cc(Cl)ccc2o1)N1CCOCC1", "inhibition": "inconclusive: 25.6%"}
{"smiles": "CC(=O)c1cccc(S(=O)(=O)N2CCC(C(=O)O)(c3ccccc3)CC2)c1", "inhibition": "inactive: -3.47%"}
{"smiles": "Cc1ccccc1NCCC(=O)Nc1ccc(F)cc1", "inhibition": "inactive: -10.1%"}
{"smiles": "CC(C)CC(=O)NC(=S)NNC(=O)c1ccc(NC(=O)C2CCCCC2)cc1", "inhibition": "inactive: -2.94%"}
{"smiles": "CCN(Cc1ccccc1)c1ccc(/C=N/N=C(N)N)cc1", "inhibition": "inconclusive: 28.7%"}
{"smiles": "COc1cc(NC(=O)C(Cc2ccccc2)n2cccc2)cc(OC)c1", "note": "(stereo not given)", "inhibition": "active: 51.9%"}
{"smiles": "CC(C)(C)C1CCc2c(sc(NC(=O)CSc3nnc(-c4ccccc4)o3)c2C#N)C1", "note": "(stereo not given)", "inhibition": "active: 56.2%"}
{"smiles": "COc1ccc(C)cc1NC(=O)C1CCCN1C(=O)OCc1ccccc1", "note": "(stereo not given)", "inhibition": "inactive: -2.71%"}
{"smiles": "COc1ccc(NC(=O)CN(C)C(=O)c2cn(-c3ccccc3)nc2-c2ccc(F)cc2)cc1", "inhibition": "inconclusive: 23.5%"}
{"smiles": "Cc1cc(-c2ccccc2)nc2c(Br)c(=O)[nH]n12", "inhibition": "inconclusive: 41.7%"}
{"smiles": "CNC(=O)/C(=C\\C=C\\c1ccccc1)NC(=O)c1ccc([N+](=O)[O-])cc1", "inhibition": "inconclusive: 24.9%"}
{"smiles": "Cc1cc(NS(=O)(=O)c2ccc(NC(=O)c3ccc([N+](=O)[O-])s3)cc2)nc(C)n1", "inhibition": "inactive: 0.819%"}
{"smiles": "O=C(CCc1ccc(S(=O)(=O)N2CCOCC2)cc1)N/N=C/c1ccc(O)c(O)c1O", "inhibition": "inconclusive: 44.6%"}
{"smiles": "C#CCOCCOCCOCCNc1nc(N2CCOCC2)nc(N2CCN(C(=O)[C@H](CCCN=C(N)N)n3cc(C(N)[C@@H](C)CC)nn3)CC2)n1", "note": "(stereo not given in full)", "inhibition": "inconclusive: 56.5%"}
{"smiles": "O=C(C1CCOCC1)N1CCCC(N2CCN(c3cccc(C(F)(F)F)c3)CC2)C1", "note": "(stereo not given)", "inhibition": "active: 51.5%"}
{"smiles": "CCCCCN(C(=O)CCC(=O)OCc1cc(C)ccc1C)c1c(N)n(CCCC)c(=O)[nH]c1=O", "inhibition": "inconclusive: 37%"}
{"smiles": "C#CCOCCOCCOCCNc1nc(N2CCN(C(=O)[C@H](Cc3ccc(O)cc3)n3cc([C@@H](N)C(C)CC)nn3)CC2)nc(N2CCN(C(=O)[C@H](CCCCN)n3cc([C@@H](N)CO)nn3)CC2)n1", "note": "(stereo not given in full)", "inhibition": "inconclusive: 29.9%"}
{"smiles": "CCSC1=N/C(=C\\c2ccccc2)C(=O)N1", "inhibition": "inactive: 24.3%"}
{"smiles": "CC(=O)N/C(=C\\c1ccccc1)C(=O)OCC(=O)Nc1cc(S(=O)(=O)N(C)C)ccc1Cl", "inhibition": "inconclusive: 34.8%"}
{"smiles": "CNC(=O)NC(=O)CSc1ccc(S(=O)(=O)N2CCOCC2)cn1", "inhibition": "inactive: -7.63%"}
{"smiles": "CCC(C)(C)NC(=O)C(c1ccc(OC)cc1)N(Cc1ccccc1)C(=O)CCC(=O)Nc1cc(C)on1", "note": "(stereo not given)", "inhibition": "inconclusive: 26.5%"}
{"smiles": "COc1cc(C2NC(=O)C(C#N)=C(S)N2c2ccccc2)ccc1OC(C)C", "note": "(stereo not given)", "inhibition": "active: 122%"}
{"smiles": "COc1cccc(Nc2nc(NCC3CCCO3)c3ccccc3n2)c1", "note": "(stereo not given)", "inhibition": "inconclusive: 37.9%"}
{"smiles": "Cc1ccc2sc(C)[n+](CCCS(=O)(=O)[O-])c2c1", "inhibition": "inconclusive: 44.9%"}
{"smiles": "S=c1nc(-c2ccccc2)n(-c2ccccc2)[nH]1", "inhibition": "inactive: -2.58%"}
{"smiles": "O=C1CN(C(=O)/C=C/c2ccc(Cl)cc2)c2ccccc2N1", "inhibition": "active: 56.1%"}
{"smiles": "O=C1C(Cl)=C(NS(=O)(=O)c2ccc([N+](=O)[O-])cc2)C(=O)c2ccccc21", "inhibition": "inconclusive: 42.6%"}
{"smiles": "CC(C)CN(C(=O)c1ccc(=O)n(C)n1)c1nc2ccccc2s1", "inhibition": "inconclusive: 31%"}
{"smiles": "CCCCOC(=O)Oc1ccc2c(=O)c(Oc3cc(C)cc(C)c3)coc2c1", "inhibition": "inconclusive: 32.4%"}
{"smiles": "CN1CCN(c2nc3c(c(=O)[nH]c(=O)n3C)n2Cc2ccc(Cl)cc2)CC1", "inhibition": "active: 66.6%"}
{"smiles": "COc1ccc2nc(NC(=O)CN3C(=O)NC4(CCCCC4)C3=O)sc2c1", "inhibition": "active: 52%"}
{"smiles": "O=C(Cn1sc2ccccc2c1=O)NC12CC3CC(CC(C3)C1)C2", "inhibition": "inconclusive: 100%"}
{"smiles": "CCN(CC)CCNc1ncnc2c1sc1nc(N3CCOCC3)c3c(c12)CC(C)(C)SC3", "inhibition": "inconclusive: 49%"}
